From publication PMC10603098 come the findings set out here.

The chains behind the UniProt entries cited, without tags or fusion partners. Residues count along the entry.
UniProt D3ZK93: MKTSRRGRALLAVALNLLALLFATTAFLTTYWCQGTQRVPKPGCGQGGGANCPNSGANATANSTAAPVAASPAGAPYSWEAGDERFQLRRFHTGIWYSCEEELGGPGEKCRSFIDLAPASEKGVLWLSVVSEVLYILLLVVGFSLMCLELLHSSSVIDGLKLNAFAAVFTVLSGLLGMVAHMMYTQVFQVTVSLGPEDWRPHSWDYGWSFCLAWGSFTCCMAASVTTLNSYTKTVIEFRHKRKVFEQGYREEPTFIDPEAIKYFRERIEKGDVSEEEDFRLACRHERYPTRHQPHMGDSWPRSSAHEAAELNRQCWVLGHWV
UniProt Q6MG82: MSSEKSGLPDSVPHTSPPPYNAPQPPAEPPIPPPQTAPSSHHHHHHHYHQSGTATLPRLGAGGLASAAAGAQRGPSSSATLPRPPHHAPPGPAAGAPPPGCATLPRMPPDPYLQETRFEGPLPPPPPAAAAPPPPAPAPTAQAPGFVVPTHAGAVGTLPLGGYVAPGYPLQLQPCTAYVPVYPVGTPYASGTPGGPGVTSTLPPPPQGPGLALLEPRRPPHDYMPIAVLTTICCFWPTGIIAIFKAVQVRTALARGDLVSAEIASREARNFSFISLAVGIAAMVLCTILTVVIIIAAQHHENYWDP
UniProt P19493, residues 21-902: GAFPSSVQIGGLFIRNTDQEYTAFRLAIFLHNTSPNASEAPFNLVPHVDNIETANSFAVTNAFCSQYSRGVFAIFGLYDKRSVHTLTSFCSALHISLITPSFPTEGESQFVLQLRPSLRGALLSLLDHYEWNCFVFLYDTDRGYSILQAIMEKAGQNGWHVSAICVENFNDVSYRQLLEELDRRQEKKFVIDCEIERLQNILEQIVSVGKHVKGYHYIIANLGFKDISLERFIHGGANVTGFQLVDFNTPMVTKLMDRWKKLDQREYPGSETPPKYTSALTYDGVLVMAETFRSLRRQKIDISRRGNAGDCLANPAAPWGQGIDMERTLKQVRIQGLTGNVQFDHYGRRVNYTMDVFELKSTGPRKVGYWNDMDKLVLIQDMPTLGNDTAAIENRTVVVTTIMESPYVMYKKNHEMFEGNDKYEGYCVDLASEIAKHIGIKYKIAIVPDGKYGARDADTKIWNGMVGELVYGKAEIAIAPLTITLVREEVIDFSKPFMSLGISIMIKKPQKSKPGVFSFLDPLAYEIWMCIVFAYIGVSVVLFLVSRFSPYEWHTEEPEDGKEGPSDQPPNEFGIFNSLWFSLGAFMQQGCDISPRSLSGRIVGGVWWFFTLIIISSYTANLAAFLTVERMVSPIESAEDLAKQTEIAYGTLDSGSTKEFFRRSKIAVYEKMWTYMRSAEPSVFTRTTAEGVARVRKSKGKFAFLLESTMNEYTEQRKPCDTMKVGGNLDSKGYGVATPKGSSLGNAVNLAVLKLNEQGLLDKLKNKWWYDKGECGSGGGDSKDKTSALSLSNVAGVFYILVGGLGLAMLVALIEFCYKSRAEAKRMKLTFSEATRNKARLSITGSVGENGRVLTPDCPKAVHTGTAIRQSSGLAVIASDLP
UniProt P19490, residues 19-907: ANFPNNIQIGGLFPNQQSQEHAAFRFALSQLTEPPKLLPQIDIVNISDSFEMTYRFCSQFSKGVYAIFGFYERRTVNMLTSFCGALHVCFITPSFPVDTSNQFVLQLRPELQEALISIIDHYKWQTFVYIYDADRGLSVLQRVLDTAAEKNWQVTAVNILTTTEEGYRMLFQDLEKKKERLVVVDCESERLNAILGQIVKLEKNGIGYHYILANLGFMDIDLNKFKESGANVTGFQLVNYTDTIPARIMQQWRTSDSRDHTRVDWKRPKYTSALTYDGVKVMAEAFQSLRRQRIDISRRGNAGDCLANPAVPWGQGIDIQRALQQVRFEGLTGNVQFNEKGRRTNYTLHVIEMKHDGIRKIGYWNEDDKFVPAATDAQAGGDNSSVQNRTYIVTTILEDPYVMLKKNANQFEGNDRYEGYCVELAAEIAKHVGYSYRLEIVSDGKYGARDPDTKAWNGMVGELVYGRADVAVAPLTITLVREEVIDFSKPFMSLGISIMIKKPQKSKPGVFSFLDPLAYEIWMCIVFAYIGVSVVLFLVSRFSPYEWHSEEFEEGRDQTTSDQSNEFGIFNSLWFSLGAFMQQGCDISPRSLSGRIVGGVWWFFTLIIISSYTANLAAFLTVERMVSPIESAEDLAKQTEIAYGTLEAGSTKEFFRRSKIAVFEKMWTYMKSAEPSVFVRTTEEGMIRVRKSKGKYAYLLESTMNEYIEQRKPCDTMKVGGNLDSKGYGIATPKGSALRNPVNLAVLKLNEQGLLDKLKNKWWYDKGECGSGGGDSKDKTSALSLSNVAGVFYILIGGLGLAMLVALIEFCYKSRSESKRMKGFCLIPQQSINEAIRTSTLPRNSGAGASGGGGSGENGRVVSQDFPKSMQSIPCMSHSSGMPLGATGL
UniProt Q71RJ2: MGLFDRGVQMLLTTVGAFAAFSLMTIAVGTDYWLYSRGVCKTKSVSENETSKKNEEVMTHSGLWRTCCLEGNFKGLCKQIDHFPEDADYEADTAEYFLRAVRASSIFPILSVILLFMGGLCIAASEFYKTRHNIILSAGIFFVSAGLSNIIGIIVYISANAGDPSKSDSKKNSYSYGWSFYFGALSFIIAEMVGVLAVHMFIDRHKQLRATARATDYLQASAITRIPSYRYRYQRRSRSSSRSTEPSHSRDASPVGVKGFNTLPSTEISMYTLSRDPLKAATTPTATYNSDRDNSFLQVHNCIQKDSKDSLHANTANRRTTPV
UniProt P19492, residues 23-888: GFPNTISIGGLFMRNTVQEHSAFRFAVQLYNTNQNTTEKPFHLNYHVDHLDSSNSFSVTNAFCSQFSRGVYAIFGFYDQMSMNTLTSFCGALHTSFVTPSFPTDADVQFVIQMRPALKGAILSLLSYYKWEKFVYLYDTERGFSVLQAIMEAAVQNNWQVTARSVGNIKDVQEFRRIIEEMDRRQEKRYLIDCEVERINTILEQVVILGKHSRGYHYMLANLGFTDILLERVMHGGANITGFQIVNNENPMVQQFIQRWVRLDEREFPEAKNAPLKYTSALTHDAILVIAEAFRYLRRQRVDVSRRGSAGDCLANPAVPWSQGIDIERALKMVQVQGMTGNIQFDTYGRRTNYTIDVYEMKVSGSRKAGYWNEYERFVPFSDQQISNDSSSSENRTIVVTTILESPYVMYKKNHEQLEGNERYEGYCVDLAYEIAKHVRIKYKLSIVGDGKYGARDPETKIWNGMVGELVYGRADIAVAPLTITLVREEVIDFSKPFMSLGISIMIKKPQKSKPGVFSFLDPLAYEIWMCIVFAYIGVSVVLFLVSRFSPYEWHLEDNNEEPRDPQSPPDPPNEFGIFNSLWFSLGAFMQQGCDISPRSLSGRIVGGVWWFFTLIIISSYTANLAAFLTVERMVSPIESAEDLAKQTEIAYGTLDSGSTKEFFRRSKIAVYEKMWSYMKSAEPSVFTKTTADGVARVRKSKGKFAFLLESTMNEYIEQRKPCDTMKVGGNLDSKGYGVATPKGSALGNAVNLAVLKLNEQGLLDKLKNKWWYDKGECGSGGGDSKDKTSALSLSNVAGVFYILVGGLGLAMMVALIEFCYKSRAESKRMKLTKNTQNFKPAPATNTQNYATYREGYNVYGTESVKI

No constants are given. Whether binding was seen depends on the method and setting. In cells and extracts the contact can be indirect. These calls come from enrichment with a bait or labelling near it, and not all partners need be listed.

The experiment addresses germ cell-specific gene 1-like protein (GSG1L) (rat (endogenous in rat brain)) (UniProt D3ZK93). In words: affinity purification with mass spectrometry; multi-epitope AP-MS: three polyclonal anti-GSG1L antibodies on protein A Dynabeads, 2 h; membranes of adult (P59) rat brain solubilised in CL-47; GSG1L KO rats as negative control; minimum tnR of 0.25 as indicator of specific interaction.

As to “proline-rich transmembrane protein 1 (PRRT1) (from UniProt Q6MG82 1-306)”, the binding entry is reported as “binds”.

Consider “GluA4 (AMPA receptor pore-forming subunit) (from UniProt P19493 21-902)”, for which the binding result is “binds”.

Regarding “GluA1 (AMPA receptor pore-forming subunit) (from UniProt P19490 19-907)”, the binding entry is listed as “binds”.

As for “transmembrane AMPAR regulatory protein γ2 (TARP γ2), rat brain (from UniProt Q71RJ2 1-323)”, the binding entry is listed as “binds”.

For “GluA3 (AMPA receptor pore-forming subunit) (from UniProt P19492 23-888)”, the binding result is listed as “binds”.
